Test results published in article PMC12627864.
These are yes or no findings as the source states them, for the method shown. In cells and extracts the contact can be indirect. Some results given as binding are weak or reduced against the parent protein; the word gives no strength.

The chains behind the UniProt entries cited, without tags or fusion partners.
UniProt Q9WTL8: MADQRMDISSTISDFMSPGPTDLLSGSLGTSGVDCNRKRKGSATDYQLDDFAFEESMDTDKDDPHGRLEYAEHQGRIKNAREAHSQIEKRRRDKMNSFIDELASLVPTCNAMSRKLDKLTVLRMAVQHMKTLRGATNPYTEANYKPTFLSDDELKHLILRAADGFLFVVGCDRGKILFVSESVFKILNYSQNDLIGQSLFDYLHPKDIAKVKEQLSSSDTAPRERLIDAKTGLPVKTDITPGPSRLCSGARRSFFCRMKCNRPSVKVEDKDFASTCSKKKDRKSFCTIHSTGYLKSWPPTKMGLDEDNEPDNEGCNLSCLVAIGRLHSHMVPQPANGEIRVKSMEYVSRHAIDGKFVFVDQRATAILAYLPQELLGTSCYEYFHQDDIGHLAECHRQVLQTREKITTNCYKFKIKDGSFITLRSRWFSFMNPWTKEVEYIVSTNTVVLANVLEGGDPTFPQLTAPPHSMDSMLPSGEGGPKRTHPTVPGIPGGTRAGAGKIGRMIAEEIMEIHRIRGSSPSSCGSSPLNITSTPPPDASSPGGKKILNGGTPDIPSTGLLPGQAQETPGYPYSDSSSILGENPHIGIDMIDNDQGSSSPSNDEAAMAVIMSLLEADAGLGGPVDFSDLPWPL

T1: PERIOD (PER)3 (UniProt O70361)
T1 sequence: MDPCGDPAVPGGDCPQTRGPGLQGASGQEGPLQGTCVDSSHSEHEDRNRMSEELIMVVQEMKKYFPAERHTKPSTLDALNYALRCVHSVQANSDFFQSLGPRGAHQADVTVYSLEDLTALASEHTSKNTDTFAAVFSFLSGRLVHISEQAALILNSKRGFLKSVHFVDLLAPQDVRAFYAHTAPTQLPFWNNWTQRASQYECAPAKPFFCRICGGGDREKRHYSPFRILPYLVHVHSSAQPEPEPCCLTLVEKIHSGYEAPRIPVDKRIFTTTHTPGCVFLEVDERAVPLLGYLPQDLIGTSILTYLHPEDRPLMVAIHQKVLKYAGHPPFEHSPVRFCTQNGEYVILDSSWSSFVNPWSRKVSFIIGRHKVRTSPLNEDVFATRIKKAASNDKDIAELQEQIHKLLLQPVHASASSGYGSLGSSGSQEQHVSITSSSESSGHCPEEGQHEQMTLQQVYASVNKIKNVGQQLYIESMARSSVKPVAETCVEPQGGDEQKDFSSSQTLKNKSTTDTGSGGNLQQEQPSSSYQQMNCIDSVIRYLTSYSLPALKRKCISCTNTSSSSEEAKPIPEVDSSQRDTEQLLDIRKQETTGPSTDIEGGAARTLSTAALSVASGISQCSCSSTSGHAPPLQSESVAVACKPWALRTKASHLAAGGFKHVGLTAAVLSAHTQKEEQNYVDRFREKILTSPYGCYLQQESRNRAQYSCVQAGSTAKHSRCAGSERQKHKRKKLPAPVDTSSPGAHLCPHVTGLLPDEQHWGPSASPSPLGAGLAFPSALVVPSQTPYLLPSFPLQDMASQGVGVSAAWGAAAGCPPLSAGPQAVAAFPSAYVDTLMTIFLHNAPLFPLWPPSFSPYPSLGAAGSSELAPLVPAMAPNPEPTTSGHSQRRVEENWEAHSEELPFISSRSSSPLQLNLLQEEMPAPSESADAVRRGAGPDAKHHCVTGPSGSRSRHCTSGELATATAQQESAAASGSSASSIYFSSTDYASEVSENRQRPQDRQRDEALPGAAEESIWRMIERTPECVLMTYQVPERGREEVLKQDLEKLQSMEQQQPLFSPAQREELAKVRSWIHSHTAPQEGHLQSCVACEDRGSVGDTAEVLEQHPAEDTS

B1: PERIOD (PER)3 (protein, UniProt O70361 1-1113)
chain: T1 sequence

What was measured:
PERIOD (PER)3 = target: T1, PERIOD (PER)3; experiment: co-IP; Co-IP kit; lysate incubated overnight at 4 °C with anti-BMAL1, anti-PER3 or IgG antibodies, magnetic beads, Western blot of the eluate; both directions
BMAL1 = BMAL1 (UniProt Q9WTL8); experiment: as above

Molecule | binding (PERIOD (PER)3) | binding (BMAL1)
BMAL1 (from UniProt Q9WTL8 1-632) | binds | 
B1 |  | binds
